From PubChem BioAssay AID328 (DTP/NCI, 2004)
The list is a part of this screen's results and no random one: it gathers tests that were run many times, whatever their T/C, doses with no T/C, and many T/C values between a quarter and a half above the control. Other doses and runs of a compound stand elsewhere. T/C: endpoint of the treated group in % of that of the vehicle group. Some doses have a count of surviving animals in place of a T/C: the source files T/C as zero there, which appears to mark a toxic dose or a test without result, not a measured value. Some doses without a T/C left all or most animals alive at the check, yet need not have been tolerated: survival well below the control is almost never listed, so the zero probably covers shortened survival too. Counts of survivors are from the toxicity check (mostly the fifth day) where no day follows; animals may have died later. Schedule codes are those of the source, read here as Q, the interval in days (D) or hours (H), X, the number of doses. Where survival is the endpoint, this PubChem deposit counts one and a half times the control or more as active, and values a quarter to a half above the control carry no call in these data; other NCI protocols may use other cut-offs. Some entries were tested several times; their values stand side by side, smallest first.

Test system: BDF1 mice, P388 leukemia ip, median survival T/C
Assay: NCI In Vivo Anticancer Drug Screen. Data for tumor model P388 Leukemia (intraperitoneal) in B6D2F1 (BDF1) mice
Details: T/C endpoint: median survival time, higher T/C = longer survival
Summary of the method: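 In tumour-bearing mice, survival after compound treatment is set against the vehicle group and given as a quotient.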

[1] = dose: 1.0 mg/kg/injection, schedule: Q01DX009 (ip), vehicle: saline
[2] = dose: 100.0 mg/kg/injection, schedule: Q01DX009 (ip), vehicle: saline with Tween-80
[3] = dose: 200.0 mg/kg/injection, schedule: Q01DX009 (ip), vehicle: saline with Tween-80
[4] = dose: 50.0 mg/kg/injection, schedule: Q01DX009 (ip), vehicle: saline
[5] = dose: 400.0 mg/kg/injection, schedule: Q01DX009 (ip), vehicle: Klucel (hydroxypropylcellulose) (HPC)

With `C1CN1c1nc(N2CC2)nc(N2CC2)n1` the T/C (dose: 0.12 mg/kg/injection, schedule: Q01DX010 (ip), vehicle: water) was 136 % of control, the survivor count (dose: 0.2 mg/kg/injection, schedule: Q01DX009 (ip), vehicle: saline) was 3 of 6 and the T/C (dose: 0.25 mg/kg/injection, schedule: Q01DX009 (ip), vehicle: saline) was 136 % of control. The T/C [1] was 145 % of control, the survivor count (dose: 1.0 mg/kg/injection, schedule: Q01DX010 (ip), vehicle: saline) was 6 of 6 and the survivor count (dose: 1.6 mg/kg/injection, schedule: Q01DX009 (ip), vehicle: saline) was 2 of 6. The survivor count (dose: 3.2 mg/kg/injection, schedule: Q01DX009 (ip), vehicle: saline) was 3 of 6.
`COc1cccc(N=C(N)N=C(N)N)c1` was tested, and the survivor count (dose: 200.0 mg/kg/injection, schedule: Q01DX001 (ip), vehicle: saline) was 2 of 6.
`CC1=Nc2ccccc2N=C(C)C1` was tested, and the survivor count (dose: 225.0 mg/kg/injection, schedule: Q01DX009 (ip), vehicle: saline with Tween-80) was 3 of 6, the survivor count (dose: 335.0 mg/kg/injection, schedule: Q01DX009 (ip), vehicle: saline with Tween-80) was 1 of 6 and the survivor count (dose: 400.0 mg/kg/injection, schedule: Q04DX003 (ip), vehicle: saline with Tween-80) was 6 of 6.
`CC(C)(C)NCCC(O)c1cc2c(Cl)cc(Cl)cc2c2cc(C(F)(F)F)ccc12` (stereo not given) was tested, and the survivor count [2] was 5 of 6 and the survivor count [3] was 1 of 6.
In the case of `C[C@H]1[C@H](O)[C@H]2[C@@H](CCC3=CC(=O)CC[C@@]32C)[C@@H]2CC[C@H](O)[C@@]12C`, the survivor count [2] is reported as 6 of 6.
With `Cn1c2nc(=O)n(-c3ccccc3)c(=O)c-2nc2ccccc21` the survivor count [2] was 1 of 6 and the survivor count [3] was 0 of 6.
`Cc1cc([N+](=O)[O-])cc([N+](=O)[O-])c1OC(=O)c1ccc(N=C(N)N)cc1` was tested, and the T/C [4] was 125 % of control, the T/C (dose: 100.0 mg/kg/injection, schedule: Q01DX009 (ip), vehicle: saline) was 140 % of control and the survivor count (dose: 200.0 mg/kg/injection, schedule: Q01DX009 (ip), vehicle: saline) was 3 of 6. For the same molecule, the survivor count (dose: 400.0 mg/kg/injection, schedule: Q04DX003 (ip), vehicle: saline) was 2 of 6.
With `Nc1cc(N)nc(S(=O)O)n1` the T/C (dose: 35.0 mg/kg/injection, schedule: Q01DX009 (ip), vehicle: Klucel (hydroxypropylcellulose) (HPC)) was 127 % of control, the T/C (dose: 50.0 mg/kg/injection, schedule: Q01DX009 (ip), vehicle: Klucel (hydroxypropylcellulose) (HPC)) was 127 and 130 % of control and the T/C (dose: 75.0 mg/kg/injection, schedule: Q01DX009 (ip), vehicle: Klucel (hydroxypropylcellulose) (HPC)) was 133 % of control.
In the case of `COC1C(C)OC(OC2CC(C)(O)Cc3cc4c(c(O)c32)C(=O)c2c(O)cc3c(c2C4=O)OC2OC3(C)C(O)C(N(C)C)C2O)C(OC)C1(C)OC` (stereo not given), the T/C (dose: 2.5 mg/kg/injection, schedule: Q01DX009 (ip), vehicle: other) is reported as 129 % of control and the T/C (dose: 12.0 mg/kg/injection, schedule: Q04DX003 (ip), vehicle: water) is reported as 129 % of control.
`O=c1cc(O)ccn1CCc1cccs1` was tested, and the survivor count (dose: 50.0 mg/kg/injection, schedule: Q01DX009 (ip), vehicle: saline with Tween-80) was 3 of 6.
`CCCCNC(C)(C)C(SSSC(c1ccco1)C(C)(C)NCCCC)c1ccco1` (stereo not given) was tested, and the T/C (dose: 100.0 mg/kg/injection, schedule: Q04DX003 (ip), vehicle: saline with Tween-80) was 125 % of control.
`CC1(C)O[Se](=O)OC1(C)C` was tested, and the survivor count (dose: 12.5 mg/kg/injection, schedule: Q04DX003 (ip), vehicle: saline) was 1 of 6 and the survivor count (dose: 25.0 mg/kg/injection, schedule: Q04DX003 (ip), vehicle: saline) was 0 of 6.
With `CC(=O)O[C@H]1[C@H]2O[C@]23[C@@H]2CC[C@@H]4C[C@@H](OC(=O)CCC(=O)O)CC[C@]4(C)[C@H]2CC[C@]3(C)[C@H]1c1ccc(=O)oc1` the survivor count (dose: 1.0 mg/kg/injection, schedule: Q01DX009 (ip), vehicle: Klucel (hydroxypropylcellulose) (HPC)) was 3 of 6.
In the case of `CC(CCCN(CCCl)CCCl)Nc1ccnc2cc(Cl)ccc12` (stereo not given), the T/C (dose: 0.44 mg/kg/injection, schedule: Q01DX009 (ip), vehicle: saline) is reported as 133 % of control, the T/C (dose: 1.5 mg/kg/injection, schedule: Q01DX009 (ip), vehicle: saline) is reported as 129 % of control and the survivor count (dose: 5.0 mg/kg/injection, schedule: Q04DX003 (ip), vehicle: saline) is reported as 5 of 6. The survivor count (dose: 10.0 mg/kg/injection, schedule: Q04DX003 (ip), vehicle: saline) was 3 of 6, the survivor count (dose: 12.5 mg/kg/injection, schedule: Q01DX009 (ip), vehicle: saline) was 0 of 6 and the survivor count (dose: 20.0 mg/kg/injection, schedule: Q04DX003 (ip), vehicle: saline) was 1 of 6. The survivor count (dose: 25.0 mg/kg/injection, schedule: Q01DX009 (ip), vehicle: saline) was 0 of 6 and the survivor count [4] was 0 of 6.
`Cc1nc2[nH][nH]c(=O)c2nc1C` was tested, and the T/C [5] was 130 % of control.
For `COC(=O)[C@@H]1[C@H](O)[C@H](C)[C@H](O)[C@H](C)/C=C\C=C(C)C(=O)Nc2c(C)c(OC(C)=O)c3c(c2O)C(=O)C(C)=C2OCOC(=C23)C(C)=C[C@@](C)(O)[C@H](O)[C@@H](C)[C@H]1OC(C)=O`, the T/C [5] was 128 % of control.
`C/C=C1\C(=O)OC23C=CC4C(C(=O)OC)C(O)OC(OC12)C43` (stereo not given) was tested, and the T/C [1] was 127 % of control, the T/C (dose: 2.0 mg/kg/injection, schedule: Q01DX009 (ip), vehicle: saline + alcohol) was 145 % of control and the T/C (dose: 4.0 mg/kg/injection, schedule: Q01DX009 (ip), vehicle: saline + alcohol) was 140 % of control.
For `C=C1C(=O)CCC1/C=C\C` (stereo not given), the survivor count (dose: 100.0 mg/kg/injection, schedule: Q01DX005 (ip), vehicle: saline with Tween-80) was 0 of 6 and the survivor count (dose: 200.0 mg/kg/injection, schedule: Q01DX005 (ip), vehicle: saline with Tween-80) was 0 of 6.
